Data published in PubChem BioAssay AID248 (DTP/NCI, 2004).
The list is a part of this screen's results and no random one: it gathers tests that were run many times, whatever their T/C, doses with no T/C, and many T/C values between a quarter and a half above the control. Other doses and runs of a compound stand elsewhere. T/C is the treated group as % of the vehicle group. Some doses have a count of surviving animals in place of a T/C: the source files T/C as zero there, which appears to mark a toxic dose or a test without result, not a measured value. Some survivor counts are full or nearly so, which does not show that the dose was tolerated: survival well below the control is almost never listed, so the zero probably covers shortened survival too. Survivors were counted at the toxicity check, usually on the fifth day, unless a day is given; later deaths do not show. Schedules are NCI's codes, taken here to give the interval after Q, in days (D) or hours (H), and the number of doses after X. Some doses were run more than once; their values stand side by side, smallest first. Some schedule codes hold Z or #, which are not explained here. Where survival is the endpoint, the PubChem record calls one and a half times the control and up active, and a quarter to a half above the control has no call in these data; cut-offs in other NCI protocols can differ. Some T/C values are followed by the survivors on the day toxicity was checked, most often the fifth; without a count, all were alive then.

Tested on: L1210 leukemia ip in BDF1 mice, survival T/C
Experiment: NCI In Vivo Anticancer Drug Screen. Data for tumor model L1210 Leukemia (intraperitoneal) in B6D2F1 (BDF1) mice
Settings: T/C endpoint: mean survival time, higher T/C = longer survival
[1] = dose: 400.0 mg/kg/injection, schedule: Q04DX003 (ip), vehicle: saline with Tween-80
[2] = dose: 100.0 mg/kg/injection, schedule: Q04DX003 (ip), vehicle: Klucel (hydroxypropylcellulose) (HPC)
[3] = dose: 400.0 mg/kg/injection, schedule: Q01DX001 (ip), vehicle: carboxymethylcellulose (CMC)
[4] = dose: 400.0 mg/kg/injection, schedule: Q01DX009 (ip), vehicle: saline with Tween-80
[5] = dose: 50.0 mg/kg/injection, schedule: Q01DX009 (ip), vehicle: saline
[6] = dose: 400.0 mg/kg/injection, schedule: Q01DX009 (ip), vehicle: Klucel (hydroxypropylcellulose) (HPC)
[7] = dose: 300.0 mg/kg/injection, schedule: Q01DX001 (ip), vehicle: saline
[8] = dose: 300.0 mg/kg/injection, schedule: Q01DX001 (ip), vehicle: carboxymethylcellulose (CMC)
[9] = dose: 200.0 mg/kg/injection, schedule: Q04DX002 (ip), vehicle: Klucel (hydroxypropylcellulose) (HPC)
[10] = dose: 200.0 mg/kg/injection, schedule: Q04DX003 (ip), vehicle: saline
[11] = dose: 400.0 mg/kg/injection, schedule: Q04DX003 (ip), vehicle: saline
[12] = dose: 100.0 mg/kg/injection, schedule: Q01DX001 (ip), vehicle: saline
[13] = dose: 400.0 mg/kg/injection, schedule: Q01DX001 (ip), vehicle: saline

c1ccc(NC23CC4CC(CC(C4)C2)C3)cc1
survivor count [1]: 2 of 6

C=C1CC2(OC1=O)C(=O)N(C)c1ccccc12 (stereo not given)
survivor count (dose: 100.0 mg/kg/injection, schedule: Q04DX002 (ip), vehicle: gum acacia): 1 of 3 | survivor count (dose: 200.0 mg/kg/injection, schedule: Q04DX002 (ip), vehicle: gum acacia): 0 of 3 | survivor count (dose: 400.0 mg/kg/injection, schedule: Q04DX002 (ip), vehicle: gum acacia): 0 of 3

CC(C)(C)C1CCNC(=O)CC1 (stereo not given)
survivor count (dose: 40.0 mg/kg/injection, schedule: Q01DX009 (ip), vehicle: Klucel (hydroxypropylcellulose) (HPC)): 5 of 6 | survivor count (dose: 80.0 mg/kg/injection, schedule: Q04DX003 (ip), vehicle: Klucel (hydroxypropylcellulose) (HPC)): 3 of 6 | survivor count [2]: 6 of 6 | survivor count (dose: 200.0 mg/kg/injection, schedule: Q04DX003 (ip), vehicle: Klucel (hydroxypropylcellulose) (HPC)): 0 of 6 | survivor count (dose: 400.0 mg/kg/injection, schedule: Q04DX003 (ip), vehicle: Klucel (hydroxypropylcellulose) (HPC)): 0 of 6

COc1cc2c(c(OC)c1OC)-c1ccc(OC)c(=O)cc1C(=O)CC2
survivor count (dose: 100.0 mg/kg/injection, schedule: Q01DX001 (ip), vehicle: carboxymethylcellulose (CMC)): 1 of 4 | survivor count (dose: 200.0 mg/kg/injection, schedule: Q01DX001 (ip), vehicle: carboxymethylcellulose (CMC)): 0 of 4 | survivor count [3]: 0 of 4

COc1cc(NC(=O)O/N=C/c2ccccn2)cc(OC)c1OC
survivor count [4]: 5 of 6

O=[N+]([O-])CC(OCCCc1ccccc1)C(Cl)(Cl)Cl (stereo not given)
survivor count [4]: 2 of 5

Nc1ncnc(N)n1
survivor count [3]: 1 of 4

Cc1ncc(CO)c(/C=N\OCc2cccc(Cl)c2)c1O
survivor count [5]: 0 of 3

CN(C)/N=C1\C(=O)Nc2ccccc21
survivor count (dose: 200.0 mg/kg/injection, schedule: Q01DX009 (ip), vehicle: Klucel (hydroxypropylcellulose) (HPC)): 0 of 6 | survivor count [6]: 0 of 6

O=C(CI)NCc1ccccc1
survivor count (dose: 150.0 mg/kg/injection, schedule: Q01DX001 (ip), vehicle: saline): 2 of 6 | survivor count [7]: 0 of 6

Nc1ncnc2cc[nH]c12
survivor count [8]: 0 of 4 and 3 of 6

CC(C)Nc1nc(Cl)nc(NC(C)C)n1
survivor count [2]: 0 of 6

CC1(C)CN1Sc1ccc([N+](=O)[O-])cc1 (stereo not given)
survivor count [9]: 1 of 3 | survivor count (dose: 400.0 mg/kg/injection, schedule: Q04DX002 (ip), vehicle: Klucel (hydroxypropylcellulose) (HPC)): 0 of 3

CCOc1nc(SCC)ncc1C
survivor count (dose: 400.0 mg/kg/injection, schedule: Q01DX009 (ip), vehicle: water): 3 of 6

CC(C)c1ccc(/C=N/NC(=O)c2ccc[n+](C)c2)cc1
survivor count (dose: 100.0 mg/kg/injection, schedule: Q01DX009 (ip), vehicle: saline): 0 of 3 | survivor count (dose: 200.0 mg/kg/injection, schedule: Q01DX009 (ip), vehicle: saline): 0 of 3

CC(=O)C(CCC#N)(CCC#N)C(C)=O
T/C [9]: 125 % of control

O=C(O)CCc1c[nH]c2ccc(N(CCCl)CCCl)cc12
T/C (dose: 0.93 mg/kg/injection, schedule: Q01DX001 (ip), vehicle: carboxymethylcellulose (CMC)): 130 % of control | T/C (dose: 3.0 mg/kg/injection, schedule: Q01DX Z (ip), vehicle: carboxymethylcellulose (CMC)): 133 % of control | T/C (dose: 3.75 mg/kg/injection, schedule: Q01DX001 (ip), vehicle: carboxymethylcellulose (CMC)): 143 % of control | T/C (dose: 5.0 mg/kg/injection, schedule: Q01DX001 (ip), vehicle: saline): 146 % of control | T/C (dose: 6.0 mg/kg/injection, schedule: Q01DX Z (ip), vehicle: carboxymethylcellulose (CMC)): 146 % of control | T/C (dose: 7.5 mg/kg/injection, schedule: Q01DX001 (oral), vehicle: carboxymethylcellulose (CMC)): 144 % of control | T/C (dose: 10.0 mg/kg/injection, schedule: Q01DX001 (ip), vehicle: saline): 148 % of control | survivor count (dose: 12.0 mg/kg/injection, schedule: Q01DX Z (ip), vehicle: carboxymethylcellulose (CMC)): 3 of 6 | T/C (dose: 20.0 mg/kg/injection, schedule: Q01DX001 (ip), vehicle: saline): 148 % of control | T/C (dose: 20.0 mg/kg/injection, schedule: Q01DX001 (oral), vehicle: saline): 142 % of control | survivor count (dose: 30.0 mg/kg/injection, schedule: Q01DX001 (oral), vehicle: carboxymethylcellulose (CMC)): 6 of 6 | survivor count (dose: 40.0 mg/kg/injection, schedule: Q01DX001 (ip), vehicle: saline): 2 of 6 | survivor count (dose: 40.0 mg/kg/injection, schedule: Q01DX001 (oral), vehicle: saline): 5 of 6 | survivor count (dose: 80.0 mg/kg/injection, schedule: Q01DX001 (ip), vehicle: saline): 3 of 6 | survivor count (dose: 80.0 mg/kg/injection, schedule: Q01DX001 (oral), vehicle: saline): 5 of 6 | survivor count (dose: 160.0 mg/kg/injection, schedule: Q01DX001 (oral), vehicle: saline): 2 of 6 | survivor count (dose: 320.0 mg/kg/injection, schedule: Q01DX001 (oral), vehicle: saline): 1 of 6

COc1cc(C(=O)N2CCOC23CCN(Cc2ccccc2)CC3)cc(OC)c1OC
survivor count [4]: 0 of 6

C=CCCC1(Cc2ccccc2)C(=O)NC(=O)NC1=O
survivor count [7]: 2 of 6

CCN(CC)CCOc1cc(C)cc2ccccc12
survivor count [10]: 2 of 6 | survivor count [11]: 0 of 6

CN1CCCCC1CCN1c2ccccc2Sc2ccc(Cl)cc21 (stereo not given)
survivor count [5]: 2 of 6

Cc1c2ccccc2c(C)c2c1cc(C(=O)O)c1ccccc12
T/C (dose: 100.0 mg/kg/injection, schedule: Q04DX002 (ip), vehicle: Klucel (hydroxypropylcellulose) (HPC)): 134 % of control

Cc1ccc(C(=O)CCCN2CCOCC2)c(C)c1
survivor count [12]: 2 of 4 | survivor count [13]: 1 of 4

CC(C)(C)NNC(=O)c1ccccc1
survivor count (dose: 150.0 mg/kg/injection, schedule: Q04DX003 (ip), vehicle: saline with Tween-80): 3 of 6 | survivor count (dose: 300.0 mg/kg/injection, schedule: Q04DX003 (ip), vehicle: saline with Tween-80): 0 of 6

CC(C)(CN=Cc1ccccc1[O-])N=Cc1ccccc1[O-].[O]=[V]
survivor count (dose: 100.0 mg/kg/injection, schedule: Q01DX009 (ip), vehicle: saline with Tween-80): 1 of 6 | survivor count (dose: 200.0 mg/kg/injection, schedule: Q01DX009 (ip), vehicle: saline with Tween-80): 0 of 6

CN(C)N=Nc1cn(C)c(=O)n(C)c1=O
T/C (dose: 50.0 mg/kg/injection, schedule: Q04DX003 (ip), vehicle: water): 133 % of control [5 of 6 alive] | T/C (dose: 100.0 mg/kg/injection, schedule: Q04DX003 (ip), vehicle: water): 133 % of control

C=CCN(CC=C)C(=O)Nc1ccc(C(=O)N/N=C/c2cccc(OC)c2OC)cc1
survivor count [6]: 3 of 3

CC(=O)N(C1=C(Cl)C(=O)c2ccccc2C1=O)c1ccc(Cl)cc1
survivor count [8]: 0 of 6

Oc1c(CNCCCN2CCCC2)cc(Cl)c2cccnc12
survivor count (dose: 400.0 mg/kg/injection, schedule: Q04DX002 (ip), vehicle: saline): 0 of 3

CCN(CC)CC[N-]CCN(CC)CC.[Cl][Pt]
survivor count (dose: 200.0 mg/kg/injection, schedule: Q01DX001 (ip), vehicle: saline): 0 of 6 | survivor count [13]: 0 of 6

Oc1ccc(Cl)cc1Sc1cc(Cl)ccc1O
survivor count [10]: 2 of 6 | survivor count [11]: 2 of 6

Cc1ccc(S(=O)(=O)OCC(COS(=O)(=O)c2ccc(C)cc2)(COS(=O)(=O)c2ccc(C)cc2)COS(=O)(=O)c2ccc(C)cc2)cc1
survivor count [9]: 1 of 3

OCCN(CCO)c1nnc(-c2ccccc2)o1
survivor count [12]: 6 of 6

OC(CC(CC(O)(C(F)(F)F)C(F)(F)F)=NNc1ccccc1)(C(F)(F)F)C(F)(F)F
survivor count (dose: 200.0 mg/kg/injection, schedule: Q04DX003 (ip), vehicle: saline with Tween-80): 0 of 6 | survivor count [1]: 0 of 6
